Test results as given in PubChem BioAssay AID493014 (National Center for Advancing Translational Sciences (NCATS), 2011).
This is one part of the list. Shown are side measurements of this screen, not its main read-out; they come without a call. The list favours compounds with an active or inconclusive main result. The note in brackets gives the kind of curve behind each potency; many fits are weak.

Assay: qHTS Assay to Find Inhibitors of Chronic Active B-Cell Receptor Signaling
Conditions: ABC-DLBCL IkBa-CBG/CBR reporter, luminescence ratio (green luciferase fused to IkBa over red control in TMD8 lymphoma cells), 4 h
Procedure, shortened: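 TMD8 ABC-DLBCL cells carrying doxycycline-inducible green luciferase fused to IkappaBalpha plus unfused red luciferase were exposed to compounds (up to 46 uM) for 4 hrs at 37C. Activity came from the overlap-corrected green/red luminescence ratio.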

[1] = measured here: CBR red luminescence, cell number
[2] = measured here: IkBa-CBG green luminescence

Cc1ccc(-c2noc(-c3cc4ccccc4oc3=O)n2)cc1
AC50 [1]: 35.5 µM [falling, single point]

CCN1C(=O)/C(=C2\SC(=S)N(NC(=O)c3cccnc3)C2=O)c2ccccc21
AC50 [1]: 10 µM [falling, partial curve, poor fit]

CCN(CC)S(=O)(=O)c1ccc2c(c1)N(CC(=O)Nc1cccnc1Cl)C(=O)CO2
AC50 [1]: 5.62 µM [rising, full curve]

Cc1cc(NCc2ccccc2)nc2ccccc12
AC50 [1]: 8.2 µM [rising, partial curve]

NC(=O)C1=C[C@@H](c2ccc(Br)cc2)C[C@@H](OCCCCO)O1
AC50 [1]: 3.55 µM [rising, single point]

Cc1ccc(/C=N/NC(=O)c2ccoc2C)o1
AC50 [1]: 1.64 µM [falling, partial curve, poor fit]

CCc1cc(C(=O)N/N=C/c2ccc(O)cc2O)c2ccccc2n1
AC50 [1]: 10 µM [falling, single point]

O=c1oc(Nc2cccc(Cl)c2)nc2ccccc12
AC50 [1]: 3.16 µM [falling, full curve]

CCOc1ccc(NC(=O)N2CCC(n3nnc4cc(C)ccc43)CC2)cc1
AC50 [1]: 8.2 µM [rising, partial curve]

CCC(CC)C(=O)Nc1ccc(C)cc1O
AC50 [1]: 6.31 µM [rising, partial curve, poor fit]

CS(=O)(=O)c1cccc(-c2csc(N3CCC(C(N)=O)CC3)n2)c1
AC50 [1]: 4.61 µM [rising, full curve, poor fit]

O=C(CCc1ccccc1O)N/N=C/c1ccc(Sc2cccc3cccnc23)o1
AC50 [1]: 29.1 µM [falling, single point]

O=C(O)C1CC(=O)N(c2ccc(OCc3c(F)cccc3Cl)cc2)C1 (centres undefined)
AC50 [1]: 5.17 µM [falling, partial curve, poor fit]

CCc1[nH]c(=S)c(C#N)c2c1CCCC2
AC50 [1]: 5.8 µM [rising, full curve, poor fit]

COc1ccc(OC(=O)c2ccc(Cl)cc2)c(C(C)=O)c1
AC50 [1]: 4.47 µM [rising, partial curve]

O=C(NCc1ccc(-n2cccc2)cc1)c1cccc(F)c1
AC50 [1]: 12.6 µM [rising, partial curve, poor fit]

Oc1ccc2ccccc2c1C=Nc1ccccc1-c1nc2ccccc2[nH]1
AC50 [1]: 29.1 µM [falling, single point]

CC1Cc2ccccc2N1C(=O)c1cnc2n(c1=O)CCS2 (centres undefined)
AC50 [1]: 13 µM [falling, partial curve]

COc1cccc(NC(=O)Nc2nnc(CC(=O)NCc3ccccc3)s2)c1
AC50 [1]: 25.1 µM [falling, single point]

Cc1c(C(=O)N2CCCCC2)oc2ccc(S(=O)(=O)N3CC(C)CC(C)C3)cc12 (centres undefined)
AC50 [1]: 0.891 µM [falling, full curve]

CCNc1c(N)c(=O)oc2ccccc12
AC50 [1]: 5.01 µM [falling, partial curve]

Cc1cc(NC(=O)COC(=O)c2cccc(O)c2)no1
AC50 [1]: 35.5 µM [falling, single point]

COCc1cc(C)nc2sc3c(=O)n(-c4ccccc4C(F)(F)F)nnc3c12
AC50 [1]: 5.01 µM [rising, full curve, poor fit]

CC(=O)Nc1ccc2nc(NC(=O)CS(=O)(=O)c3ccc(C)cc3)sc2c1
AC50 [1]: 14.1 µM [falling, single point]

CC(=O)Nc1ccc(/C=C/C(=O)c2ccccc2)cc1
AC50 [1]: 17.8 µM [falling, single point]
AC50 [2]: 35.5 µM [rising, partial curve, poor fit]

CSc1nsc(SCC(=O)Nc2ccc(OC(C)=O)cc2)n1
AC50 [1]: 7.08 µM [rising, partial curve, poor fit]

Cc1cc(Cl)c2oc(C(=O)N(C)CCc3cnn(C)c3)c(C)c2c1
AC50 [1]: 17.8 µM [rising, partial curve]

CCOc1ccc(C(Nc2cccnc2)c2cc(Cl)c3cccnc3c2O)cc1 (centres undefined)
AC50 [1]: 10 µM [falling, partial curve, poor fit]

CC(C)C1=NN(C(=O)c2ccccc2)C(O)(C(C)(C)C)C1 (centres undefined)
AC50 [1]: 5.01 µM [falling, partial curve]

CCOC(=O)c1ccc(CS(=O)c2ccc(Cl)cc2)o1 (centres undefined)
AC50 [1]: 6.31 µM [falling, partial curve]

COc1ccc(/C=C/C(=O)Oc2cc(O)cc(O)c2)cc1
AC50 [1]: 7.94 µM [rising, partial curve]

Cc1ccc(OCCNC(=O)c2cc(C3CC3)nc3c2cnn3C(C)C)cc1
AC50 [1]: 0.164 µM [rising, full curve, poor fit]

O=C(Nc1ccc([N+](=O)[O-])cc1)C(=O)Nc1cccc(C(=O)O)c1
AC50 [1]: 0.316 µM [falling, full curve, poor fit]

Cc1ccc(O)c(NC(=O)c2cc(-c3ccccc3)on2)c1
AC50 [1]: 2.51 µM [falling, full curve]

O=C(CN1CCN(c2ccccc2)CC1)Nc1ccc(-n2cnnn2)cc1
AC50 [1]: 29.1 µM [falling, single point]

O=C(Nc1ccccc1)Nc1cccc(NC(=O)Nc2ccccc2)c1F
AC50 [1]: 7.08 µM [falling, partial curve, poor fit]

N#Cc1cccc(NC(=O)CNC(=O)Cc2ccccc2)c1
AC50 [1]: 3.98 µM [falling, partial curve, poor fit]

COc1ccc(-c2nc(C#N)c(NC(C)c3ccccc3)o2)cc1OC (centres undefined)
AC50 [1]: 1.84 µM [rising, partial curve]
AC50 [2]: 1.64 µM [falling, partial curve, poor fit]

O=C(NN=C1CCCC1)c1cccs1
AC50 [1]: 7.31 µM [falling, partial curve]

Cc1ccc(N=Nc2ccc(N)cc2C)c(S(N)(=O)=O)c1
AC50 [1]: 3.98 µM [rising, full curve, poor fit]

O=C(NCCc1ccc(C(F)(F)F)cc1)C1CCC(=O)N(CCCc2ccccc2)C1 (centres undefined)
AC50 [1]: 35.5 µM [falling, single point]

COc1cccc(CNn2cnnc2)c1OCc1ccccc1F
AC50 [1]: 6.51 µM [falling, partial curve, poor fit]

COc1ccc(N2C(=O)CC(NC3CC3)C2=O)cc1 (centres undefined)
AC50 [1]: 29.1 µM [rising, single point]

Cn1c(N)c(C(=O)c2cc(-c3ccccn3)nc3ccccc23)c(=O)[nH]c1=O
AC50 [1]: 35.5 µM [rising, single point]

O=C(Nc1cccc(Cl)c1)N1CCSc2cc(Cl)ccc21
AC50 [1]: 6.31 µM [rising, partial curve, poor fit]

c1ccc(CCc2nc3ccccc3[nH]2)cc1
AC50 [1]: 0.708 µM [rising, partial curve, poor fit]

COc1ccc(Nc2nc(-c3ccccc3)c3ccccc3n2)cc1
AC50 [1]: 10.3 µM [falling, partial curve]

CCCCCCOc1ccc(C(CC(=O)NC)C(=O)O)cc1 (centres undefined)
AC50 [1]: 8.91 µM [rising, partial curve, poor fit]

Cc1ccc(/C=N/NC(=O)Cc2c(F)cccc2Cl)s1
AC50 [1]: 15.8 µM [falling, single point]

COc1ccc(OC)c(NC(=O)CCNC(=O)c2ccco2)c1
AC50 [1]: 0.708 µM [falling, partial curve]

Cc1cccc(NC(=O)[C@H](Cc2c[nH]c3ccccc23)NC(=O)[C@@H]2Cc3ccccc3CN2)c1
AC50 [1]: 12.6 µM [falling, partial curve]

O=C1c2ccccc2C(=O)c2c(NCc3cccnc3)cccc21
AC50 [1]: 28.2 µM [falling, partial curve, poor fit]

O=C(CS(=O)(=O)c1ccc(F)cc1)N1CCN(c2ccccc2)CC1
AC50 [1]: 13 µM [rising, partial curve, poor fit]

OCCc1c[nH]c2ccc(OCc3ccccc3)cc12
AC50 [1]: 1.58 µM [rising, partial curve, poor fit]

CCOc1ccc(CNC(=S)N/N=C\c2ccc([N+](=O)[O-])cc2)cc1
AC50 [2]: 23.1 µM [falling, single point]

Cc1no[n+]([O-])c1COc1ccccc1/C=C1\NC(=S)NC1=O
AC50 [1]: 0.461 µM [falling, full curve, poor fit]

COCCNC(=O)c1cc(-c2cccs2)on1
AC50 [1]: 16.4 µM [falling, single point]

COc1cccc(NC(=O)c2sc(NC(=O)c3ccncc3)nc2C)c1
AC50 [1]: 15.8 µM [falling, partial curve, poor fit]

Cn1nnnc1Sc1ncnc2scc(-c3ccc([N+](=O)[O-])cc3)c12
AC50 [1]: 4.61 µM [rising, single point]
AC50 [2]: 6.51 µM [falling, single point]

COCc1ccc(O)c2ncccc12
AC50 [1]: 29.1 µM [rising, single point]
AC50 [2]: 4.11 µM [falling, full curve]

O=C(Nc1cc([N+](=O)[O-])ccc1O)c1cccc(NC(=O)c2ccco2)c1
AC50 [1]: 25.1 µM [falling, single point]

CC(c1ccccn1)N(C)C(=O)c1ccc2nc(Cc3ccccc3F)oc2c1 (centres undefined)
AC50 [1]: 11.2 µM [rising, partial curve, poor fit]

Cc1cccc(NC(=O)CNC(=O)COc2ccc(-c3ccc(C#N)cc3)cc2)c1C
AC50 [1]: 3.66 µM [rising, full curve]

CC(=O)c1ccc(Nc2nc3ccccc3nc2NS(=O)(=O)c2cccs2)cc1
AC50 [1]: 2 µM [rising, full curve]

FC(F)(F)c1cccc(N2CCN(C(=S)NC3CCCCC3)CC2)c1
AC50 [1]: 29.1 µM [falling, single point]
